From paper PMC10641623
These are yes or no findings as the source states them, for the method shown. Some binding calls cover weakened binding; strength is not graded here.

Protein sequences, listed by entry. Tags and fused reporters are not part of them.
UniProt P19073: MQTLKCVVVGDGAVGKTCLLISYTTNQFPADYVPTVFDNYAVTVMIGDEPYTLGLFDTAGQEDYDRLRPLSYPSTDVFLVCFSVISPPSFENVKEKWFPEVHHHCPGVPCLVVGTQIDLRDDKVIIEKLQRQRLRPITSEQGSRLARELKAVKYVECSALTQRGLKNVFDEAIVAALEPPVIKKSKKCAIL

Target: Cdc42p (S. cerevisiae) (UniProt P19073)
Test: two-hybrid; yeast two-hybrid between Cdc42p and Bem4p, in WT cells and in cells overexpressing RDI1; performed as described in ref. 29

B1: Bem4p (protein, UniProt P39011 1-633)
chain: MDYEEILFGLQPILNASSIKDVPMNDVYLGSYLAVMDQLAVSLREPSNRDIVGKTGLLLNLVRVLEQALDICFHDTSISINDKIAFYEISSEVIRCIANAIIDNDDNREILLDSGGKKLLNYYIGGVLQLDEISSDKSEDSLVDKLQMRSVVLLRNFCIGNLKYTENLAPFIRGPLFVLLKTTQYSYLSSPEKVVLGSDLLNDILKVNYSNVQISDLFFLSQYIKKISSNVQNKELQAMEDGAVEAYSNTETQKFAGQGNQEYIEKEEEDDEEDVNCELLLNLSTCLETIVAKDETINFTNEEQLVLSMQKNLILSLVCLESKTFNNKLIVMRRLISCAGNISANLTNSNKREQSLCIETIKSSASSYALAAALMILCNSVASKSDAVALLKLISLSELIQVGSLLQDPLQYQGFLDLLRKLLNLENTMWLDIKDLFTLFQIMRRCHEQTKYYNNLRSLLTNLLNKTLTVLPSSKIHNSISSDPTIISFIAEHGTLTSCIAMDKLLVSKKALPKEAITSLWDSIFKFQNLGQAEQLSISDLFHITKTVGIYLKDSSVTADVNPIENILFKDYIQKLTLILETILSFKENKDKGSESCFNNGKFIAGIILNIVKNTKCLTPEEQNLEALAKSFF
binding: binds
